From the supplement of paper PMC11546906
Where a name gives a salt, the structure may show the parent alone. The list shows a part of the results. Repeats in this data set agree poorly, so a single value says little.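 FDA-approved drugs were each paired with colistin at one-eighth its MIC and screened against a multidrug-resistant, mcr-1-positive clinical E. coli isolate, with OD600 read after 24 h. Drug-free bacteria served as growth control, plain broth as blank. Combinations were active if OD600 dropped below 0.2.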

test system: Escherichia coli 42 (mcr-1-positive clinical isolate); assay: OD600 after 24 h growth with compound plus colistin (absorbance units (OD600)); higher = more bacterial growth (less inhibition); details: first compound 25 µM; colistin concentration 0.5 ug/mL; incubation time 24 h; 37 °C

Structure (SMILES)	OD600
S=c1nc[nH]c2nc[nH]c12 [6-Mercaptopurine hydrate] + CCC(C)CCCC(=O)N[C@@H](CCN)C(=O)N[C@H](C(=O)N[C@@H](CCN)C(=O)N[C@H]1CCNC(=O)[C@H]([C@@H](C)O)NC(=O)[C@H](CCN)NC(=O)[C@H](CCN)NC(=O)[C@H](CC(C)C)NC(=O)[C@@H](CC(C)C)NC(=O)[C@H](CCN)NC1=O)[C@@H](C)O [colistin]	inactive: 1.1
CNC[C@H](O)c1cccc(O)c1 [Phenylephrine hydrochloride] + CCC(C)CCCC(=O)N[C@@H](CCN)C(=O)N[C@H](C(=O)N[C@@H](CCN)C(=O)N[C@H]1CCNC(=O)[C@H]([C@@H](C)O)NC(=O)[C@H](CCN)NC(=O)[C@H](CCN)NC(=O)[C@H](CC(C)C)NC(=O)[C@@H](CC(C)C)NC(=O)[C@H](CCN)NC1=O)[C@@H](C)O [colistin]	inactive: 1.1
CC(=O)O[C@]1(C(C)=O)CC[C@H]2[C@@H]3C=C(C)C4=CC(=O)CC[C@]4(C)[C@H]3CC[C@@]21C [Megestrol acetate] + CCC(C)CCCC(=O)N[C@@H](CCN)C(=O)N[C@H](C(=O)N[C@@H](CCN)C(=O)N[C@H]1CCNC(=O)[C@H]([C@@H](C)O)NC(=O)[C@H](CCN)NC(=O)[C@H](CCN)NC(=O)[C@H](CC(C)C)NC(=O)[C@@H](CC(C)C)NC(=O)[C@H](CCN)NC1=O)[C@@H](C)O [colistin]	inactive: 1.14
COC(=O)/C=C/C(=O)OC [Dimethyl fumarate] + CCC(C)CCCC(=O)N[C@@H](CCN)C(=O)N[C@H](C(=O)N[C@@H](CCN)C(=O)N[C@H]1CCNC(=O)[C@H]([C@@H](C)O)NC(=O)[C@H](CCN)NC(=O)[C@H](CCN)NC(=O)[C@H](CC(C)C)NC(=O)[C@@H](CC(C)C)NC(=O)[C@H](CCN)NC1=O)[C@@H](C)O [colistin]	inactive: 1.01
COC(=O)C1=C(C)NC(C)=C(C(=O)OCC(C)C)C1c1ccccc1[N+](=O)[O-] (centres undefined) [Nisoldipine] + CCC(C)CCCC(=O)N[C@@H](CCN)C(=O)N[C@H](C(=O)N[C@@H](CCN)C(=O)N[C@H]1CCNC(=O)[C@H]([C@@H](C)O)NC(=O)[C@H](CCN)NC(=O)[C@H](CCN)NC(=O)[C@H](CC(C)C)NC(=O)[C@@H](CC(C)C)NC(=O)[C@H](CCN)NC1=O)[C@@H](C)O [colistin]	inactive: 1.02
Cc1onc(-c2ccccc2Cl)c1C(=O)N[C@@H]1C(=O)N2[C@@H]1SC(C)(C)[C@@H]2C(=O)O [Cloxacillin sodium monohydrate] + CCC(C)CCCC(=O)N[C@@H](CCN)C(=O)N[C@H](C(=O)N[C@@H](CCN)C(=O)N[C@H]1CCNC(=O)[C@H]([C@@H](C)O)NC(=O)[C@H](CCN)NC(=O)[C@H](CCN)NC(=O)[C@H](CC(C)C)NC(=O)[C@@H](CC(C)C)NC(=O)[C@H](CCN)NC1=O)[C@@H](C)O [colistin]	inactive: 0.82
CN(C)CC[C@@H](c1ccc(Cl)cc1)c1ccccn1 [Dexchlorpheniramine Maleate] + CCC(C)CCCC(=O)N[C@@H](CCN)C(=O)N[C@H](C(=O)N[C@@H](CCN)C(=O)N[C@H]1CCNC(=O)[C@H]([C@@H](C)O)NC(=O)[C@H](CCN)NC(=O)[C@H](CCN)NC(=O)[C@H](CC(C)C)NC(=O)[C@@H](CC(C)C)NC(=O)[C@H](CCN)NC1=O)[C@@H](C)O [colistin]	inactive: 0.984
c1ccc(Cc2nc3ccccc3[nH]2)cc1 [Bendazol] + CCC(C)CCCC(=O)N[C@@H](CCN)C(=O)N[C@H](C(=O)N[C@@H](CCN)C(=O)N[C@H]1CCNC(=O)[C@H]([C@@H](C)O)NC(=O)[C@H](CCN)NC(=O)[C@H](CCN)NC(=O)[C@H](CC(C)C)NC(=O)[C@@H](CC(C)C)NC(=O)[C@H](CCN)NC1=O)[C@@H](C)O [colistin]	inactive: 1.2
C[C@]12CC[C@@H]3c4ccc(O)cc4CC[C@H]3[C@@H]1CC[C@@H]2O [Estradiol] + CCC(C)CCCC(=O)N[C@@H](CCN)C(=O)N[C@H](C(=O)N[C@@H](CCN)C(=O)N[C@H]1CCNC(=O)[C@H]([C@@H](C)O)NC(=O)[C@H](CCN)NC(=O)[C@H](CCN)NC(=O)[C@H](CC(C)C)NC(=O)[C@@H](CC(C)C)NC(=O)[C@H](CCN)NC1=O)[C@@H](C)O [colistin]	inactive: 1.11

2 entries drawn at random from those above:
Structure (SMILES)	OD600
COC(=O)C1=C(C)NC(C)=C(C(=O)OCC(C)C)C1c1ccccc1[N+](=O)[O-] (centres undefined) [Nisoldipine] + CCC(C)CCCC(=O)N[C@@H](CCN)C(=O)N[C@H](C(=O)N[C@@H](CCN)C(=O)N[C@H]1CCNC(=O)[C@H]([C@@H](C)O)NC(=O)[C@H](CCN)NC(=O)[C@H](CCN)NC(=O)[C@H](CC(C)C)NC(=O)[C@@H](CC(C)C)NC(=O)[C@H](CCN)NC1=O)[C@@H](C)O [colistin]	inactive: 1.02
C[C@]12CC[C@@H]3c4ccc(O)cc4CC[C@H]3[C@@H]1CC[C@@H]2O [Estradiol] + CCC(C)CCCC(=O)N[C@@H](CCN)C(=O)N[C@H](C(=O)N[C@@H](CCN)C(=O)N[C@H]1CCNC(=O)[C@H]([C@@H](C)O)NC(=O)[C@H](CCN)NC(=O)[C@H](CCN)NC(=O)[C@H](CC(C)C)NC(=O)[C@@H](CC(C)C)NC(=O)[C@H](CCN)NC1=O)[C@@H](C)O [colistin]	inactive: 1.11
